## Primary screen of a compound library

Chains of the proteins cited; added tags and fusions are not shown. Residues count along the entry.
UniProt P9WPC5, whole entry: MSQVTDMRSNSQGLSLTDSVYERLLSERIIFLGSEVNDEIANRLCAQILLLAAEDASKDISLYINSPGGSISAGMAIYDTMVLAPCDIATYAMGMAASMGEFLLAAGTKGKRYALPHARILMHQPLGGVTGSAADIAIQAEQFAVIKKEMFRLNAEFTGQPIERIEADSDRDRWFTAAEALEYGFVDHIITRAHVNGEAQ
UniProt P9WPC3, whole entry partner: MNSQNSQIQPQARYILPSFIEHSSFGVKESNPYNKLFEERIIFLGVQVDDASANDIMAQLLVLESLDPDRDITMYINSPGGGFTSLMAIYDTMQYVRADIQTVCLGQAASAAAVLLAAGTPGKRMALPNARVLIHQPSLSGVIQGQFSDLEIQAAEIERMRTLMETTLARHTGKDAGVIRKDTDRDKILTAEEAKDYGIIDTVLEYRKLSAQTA
UniProt P9WNZ1, whole entry: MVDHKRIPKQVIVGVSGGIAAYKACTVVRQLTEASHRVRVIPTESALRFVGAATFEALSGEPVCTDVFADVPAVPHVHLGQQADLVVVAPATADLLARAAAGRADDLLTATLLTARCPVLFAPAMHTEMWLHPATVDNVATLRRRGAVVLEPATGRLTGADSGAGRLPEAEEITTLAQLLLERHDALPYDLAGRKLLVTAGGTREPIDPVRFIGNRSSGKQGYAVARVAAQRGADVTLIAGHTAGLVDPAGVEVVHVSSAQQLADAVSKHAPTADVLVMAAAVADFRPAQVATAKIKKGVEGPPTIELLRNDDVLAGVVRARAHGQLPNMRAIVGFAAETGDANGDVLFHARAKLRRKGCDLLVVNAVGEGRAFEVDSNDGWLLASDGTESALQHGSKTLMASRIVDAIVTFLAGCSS
UniProt Q8IDJ8, 1-583: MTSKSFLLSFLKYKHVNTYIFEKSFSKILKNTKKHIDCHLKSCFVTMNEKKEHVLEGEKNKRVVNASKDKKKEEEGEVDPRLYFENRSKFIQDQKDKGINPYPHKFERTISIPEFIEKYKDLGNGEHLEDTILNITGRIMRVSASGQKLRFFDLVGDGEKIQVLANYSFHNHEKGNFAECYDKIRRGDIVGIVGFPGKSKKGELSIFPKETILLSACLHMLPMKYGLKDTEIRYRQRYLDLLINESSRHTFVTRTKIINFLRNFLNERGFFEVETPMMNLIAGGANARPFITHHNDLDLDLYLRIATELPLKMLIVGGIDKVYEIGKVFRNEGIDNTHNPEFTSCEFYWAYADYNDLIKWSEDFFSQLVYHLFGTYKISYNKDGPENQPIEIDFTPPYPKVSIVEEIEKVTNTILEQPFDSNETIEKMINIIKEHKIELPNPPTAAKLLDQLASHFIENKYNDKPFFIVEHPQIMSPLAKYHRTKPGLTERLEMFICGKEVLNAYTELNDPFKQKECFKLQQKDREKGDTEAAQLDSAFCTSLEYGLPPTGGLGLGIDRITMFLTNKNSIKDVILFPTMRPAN
UniProt Q4DA54, 1-478: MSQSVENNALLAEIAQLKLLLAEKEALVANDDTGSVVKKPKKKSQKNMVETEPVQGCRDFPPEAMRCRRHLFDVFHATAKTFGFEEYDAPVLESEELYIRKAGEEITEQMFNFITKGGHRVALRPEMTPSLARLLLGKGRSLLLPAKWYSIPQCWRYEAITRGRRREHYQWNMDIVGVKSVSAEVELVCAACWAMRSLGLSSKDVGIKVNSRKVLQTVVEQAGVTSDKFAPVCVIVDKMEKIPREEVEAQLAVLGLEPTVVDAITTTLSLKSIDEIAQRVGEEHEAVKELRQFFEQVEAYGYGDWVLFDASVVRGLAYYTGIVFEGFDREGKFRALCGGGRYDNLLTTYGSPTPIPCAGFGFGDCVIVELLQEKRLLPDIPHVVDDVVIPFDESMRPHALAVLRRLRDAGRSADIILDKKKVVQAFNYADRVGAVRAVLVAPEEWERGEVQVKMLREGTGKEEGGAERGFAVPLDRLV
UniProt I6X8D2, whole entry: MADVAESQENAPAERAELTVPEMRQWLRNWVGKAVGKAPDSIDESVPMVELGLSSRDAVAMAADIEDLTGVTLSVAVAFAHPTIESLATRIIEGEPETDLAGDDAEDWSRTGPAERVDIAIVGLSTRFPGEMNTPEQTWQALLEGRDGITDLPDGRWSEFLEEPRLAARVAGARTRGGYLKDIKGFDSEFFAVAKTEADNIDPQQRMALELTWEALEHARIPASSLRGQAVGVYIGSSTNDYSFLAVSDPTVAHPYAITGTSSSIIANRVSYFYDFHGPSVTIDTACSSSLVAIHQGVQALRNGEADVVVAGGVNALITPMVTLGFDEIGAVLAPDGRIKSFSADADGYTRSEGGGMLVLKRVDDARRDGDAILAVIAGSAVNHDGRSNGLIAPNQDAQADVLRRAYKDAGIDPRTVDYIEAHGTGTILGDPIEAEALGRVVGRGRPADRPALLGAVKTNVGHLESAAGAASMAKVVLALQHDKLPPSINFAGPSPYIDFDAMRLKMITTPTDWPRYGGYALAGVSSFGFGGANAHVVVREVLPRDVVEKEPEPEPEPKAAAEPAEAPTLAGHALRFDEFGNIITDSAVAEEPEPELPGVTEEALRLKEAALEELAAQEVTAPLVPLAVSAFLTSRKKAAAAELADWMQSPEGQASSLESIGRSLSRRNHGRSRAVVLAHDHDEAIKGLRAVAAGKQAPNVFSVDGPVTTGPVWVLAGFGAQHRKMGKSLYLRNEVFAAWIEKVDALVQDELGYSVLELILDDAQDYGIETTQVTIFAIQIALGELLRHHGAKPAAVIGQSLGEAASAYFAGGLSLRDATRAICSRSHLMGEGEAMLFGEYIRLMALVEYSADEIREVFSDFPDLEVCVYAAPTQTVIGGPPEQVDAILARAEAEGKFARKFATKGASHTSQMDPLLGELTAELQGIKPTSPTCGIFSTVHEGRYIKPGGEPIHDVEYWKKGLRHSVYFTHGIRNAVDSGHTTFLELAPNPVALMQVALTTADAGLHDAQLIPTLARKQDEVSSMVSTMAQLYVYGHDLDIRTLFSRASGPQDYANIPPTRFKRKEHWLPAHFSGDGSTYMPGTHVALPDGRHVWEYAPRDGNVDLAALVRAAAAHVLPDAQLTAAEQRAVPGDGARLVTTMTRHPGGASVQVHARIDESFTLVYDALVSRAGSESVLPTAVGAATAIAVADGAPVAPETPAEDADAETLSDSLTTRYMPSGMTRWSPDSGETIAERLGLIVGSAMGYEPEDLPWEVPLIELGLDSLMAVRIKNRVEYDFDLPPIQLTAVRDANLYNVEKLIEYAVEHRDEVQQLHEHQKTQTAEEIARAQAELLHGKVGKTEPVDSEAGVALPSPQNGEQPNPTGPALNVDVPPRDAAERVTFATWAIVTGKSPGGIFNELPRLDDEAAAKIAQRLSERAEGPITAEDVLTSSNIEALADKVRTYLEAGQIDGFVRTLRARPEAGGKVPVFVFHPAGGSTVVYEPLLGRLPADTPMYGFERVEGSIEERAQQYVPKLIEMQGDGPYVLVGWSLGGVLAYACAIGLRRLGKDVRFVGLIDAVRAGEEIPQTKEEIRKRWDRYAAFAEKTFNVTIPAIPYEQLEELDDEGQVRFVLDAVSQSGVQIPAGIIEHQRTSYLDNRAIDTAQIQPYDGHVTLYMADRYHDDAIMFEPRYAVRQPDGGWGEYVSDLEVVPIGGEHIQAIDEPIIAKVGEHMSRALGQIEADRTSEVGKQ

Results are given as percent effect.
The record does not define 0% and 100%; most values in the screen are far below 50% and negative numbers occur (in some assays of this library far below -100).
Compounds were drawn at random from those tested, without regard to their results.
A dash means the value is not listed here; it may have been measured.

ClpP1P2: 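Protease assay of ClpP1P2, read by the AMC dye that it sets free. Target: ClpP1P2, Mycobacterium tuberculosis (UniProt P9WPC5 and UniProt P9WPC3). Compounds at 50 µM. Higher reads as stronger inhibition, judged from the few compounds that gave an IC50. Most other retested compounds had strongly negative values. Of about 69,000 compounds tested this way, about 10 (0.015%) reached 50% or more in at least one test.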
CoaBC: 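Enzyme assay of CoaBC with a phosphate dye (Biomol Green) read at 650 nm. Target: Coenzyme A biosynthesis protein CoaBC, Mycobacterium tuberculosis (UniProt P9WNZ1). Tested at 30 µM. Higher reads as stronger inhibition, judged from the few compounds that gave an IC50. Most strong results did not repeat in a second test. Of about 67,000 compounds tested this way, about 40 (0.06%) reached 50% or more in at least one test.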
PfKRS1: 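Lysine-tRNA ligase, Plasmodium falciparum 3D7 (UniProt Q8IDJ8). Enzyme assay of the cytosolic lysyl-tRNA synthetase in 384-well plates, read by luminescence. Compounds at 30 µM. Direction is inferred from only a few compounds that gave an IC50; most scored high, so higher reads as stronger inhibition. Size under these conditions: about 69,000 compounds, about 49 of them at 50% or above in at least one test.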
TcHisRS: 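Histidine-tRNA ligase, Trypanosoma cruzi CL Brener (UniProt Q4DA54). Enzyme assay of histidyl-tRNA synthetase; the read-out is not stated. Concentration: 30 µM. Direction is inferred from retests: higher values go with stronger inhibition. Size under these conditions: about 69,000 compounds, about 31 of them at 50% or above in at least one test.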
Pks13 thioesterase: 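Enzyme assay of the thioesterase domain of polyketide synthase 13; the read-out is not stated. Target: Polyketide synthase Pks13, Mycobacterium tuberculosis (UniProt I6X8D2). Tested at 30 µM. Higher reads as stronger inhibition (inferred from which compounds were picked for retests). About 67,000 compounds were tested under these conditions; 0.46% (about 300) showed 50% or more at least once.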

structure,ClpP1P2,CoaBC,PfKRS1,TcHisRS,Pks13 thioesterase
COCCCC1(CO)CCCN(C(=O)c2cnc3c(c2)CCCC3)C1 (centres unmarked),-8.081,-3.406,2.744,0.6061,4.556
Cc1cnn(CCNCc2c(C)nn(-c3ccccc3)c2C)c1,-2.316,-1.129,8.783,1.463,-14.88
CCc1cnc(CN2CCCC(c3cc(C)[nH]n3)C2)o1 (centres unmarked),-11.08,0.489,5.218,6.186,-8.851
Cc1csc(C(C)(C)NCC(=O)N2CCCC(C(N)=O)C2)n1 (centres unmarked),6.253,2.174,-0.8026,3.743,-9.54
CCC[C@@H]1CN(Cc2ccccc2OC(F)(F)F)C[C@H]1NC(C)=O,-13.57,3.435,2.233,3.365,-5.671
COCCn1nc(C(=O)N2CCN(C)CC2C)ccc1=O (centres unmarked),-3.872,0.4808,4.11,5.063,-19.82
O=C(CCCc1ccccn1)N1CCC(Nc2cccnn2)CC1,-1.33,5.159,2.46,1.02,-7.453
Cc1csc2c(C3CCCN(C(=O)CCCn4cncn4)C3)nc(C)n12 (centres unmarked),-29.93,2.67,0.3154,4.215,6.689
Cc1ccc(CN(C(=O)C(C)S(C)(=O)=O)C2CC2)cc1C (centres unmarked),4.336,-,4.567,6.494,-37.71
O=C(c1cncc(N2CCC3(CCCNC3)C2)n1)N1CCCC1 (centres unmarked),-19.24,3.64,5.162,6.818,-18.67
COCCN1C[C@@H]2[C@@H](OC)CCN(C(=O)Cc3ccsc3)[C@@H]2C1,8.047,2.703,4.553,8.738,-25.67
COc1ccc(C(=O)N2CCCC(n3cc(C)cn3)C2)c(F)c1 (centres unmarked),-36.16,-2.089,0.664,6.215,-12.84
NC(=O)CN1CCCN(C(=O)Cc2ccc(F)cc2)CC1,-12.78,2.35,3.655,3.39,-202.7
CC(=O)N1CCN([C@@H]2CC[C@@H](N(C)C(=O)C3CCCCC3)[C@H]2O)CC1,-0.3996,0.4854,1.169,1.099,5.334
Cc1cc(SCC(N)=O)nc(-c2ccc(F)cc2)n1,18.81,-10.61,4.569,2.062,-18.18
Clc1ccccc1-c1nnc(CN2CCCC2Cn2cncn2)o1 (centres unmarked),4.911,1.195,3.43,8,-13.88
NC(=O)CN1CCC(c2cncc(-c3cccc(Cl)c3)n2)CC1,-0.6896,-1.611,-0.7074,2.247,-15.02
CCn1c(C)nnc1SCCNc1nc(C)nc2c1cnn2C,-7.105,2.112,6.386,-8.696,-0.4223
Cc1nc(CNCc2cccc(OC34CCCN(CC3)C4)c2)n[nH]1 (centres unmarked),-8.365,-13.92,1.531,6.03,-14.23
CCCN(Cc1cnn(C)c1)S(=O)(=O)c1ccc(F)c(C#N)c1,4.848,1.157,4.409,15,0.6523
CC(C)Oc1ccc(C(=O)Nc2nncs2)cn1,9.307,-,6.869,9.554,-27.36
COCCC(=O)N1CCCC1c1nccc(C)n1 (centres unmarked),-4.101,8.302,1.544,4.494,12.04
Cc1n[nH]c(C)c1-c1cc(-c2ccc[nH]2)nc(N)c1C#N,-2701,2.651,2.151,7.921,43.29
CC(=O)N1CCCC1c1nc(C)c2c(n1)N(Cc1ccccn1)CCC2 (centres unmarked),18.98,-1.35,1.044,4.651,-18.67
CCC(NCc1ncc[nH]1)c1nc(C(F)(F)F)cs1 (centres unmarked),-18.28,1.709,4.61,5.946,-38.87
Cc1cc(C(=O)NCc2ccnc(N3CCN(C)CC3)c2)sc1C,-13.02,3.325,-0.9073,13.53,-24.31
Cc1nc(C)c(C(=O)NCc2nc3cccc(C)c3n2C)o1,-2.982,6.112,1.816,4.372,-17.47
COc1ccc(C(=O)NS(=O)(=O)c2ccc(C#N)cc2C(F)(F)F)cc1,1.53,-0.5931,5.9,3.008,3.138
COc1ccccc1C(=O)N1CCN(CCc2scnc2C)CC1,5.217,-,1.844,-1.299,-28.84
COc1cccc(-c2cc(-c3nc(CN4CCN(C)CC4)no3)[nH]n2)c1,-7.068,-1.988,1.415,6.667,-9.105
COc1ccc(CNC(=O)c2ccc(Cl)cc2F)cc1C(=O)O,-3.005,-1.053,7.602,2.5,1.027
O=C(c1cscn1)N1CCc2ncnc(-c3cccnc3)c2CC1,0.2042,-2.439,0.2824,1.111,-46.22
CCCC(=O)N1CCC2(CC1)CN(Cc1cccc(C)n1)C(=O)CO2,-9.36,-0.9877,1.366,4.673,-10.62
Cc1nc(C(C)C)sc1C(=O)NCCn1nc2ccccn2c1=O,-33.06,3.861,-1.393,8.455,2.407
CC(C)Oc1ccc(CNC(=O)C2CCS(=O)(=O)C2)cn1 (centres unmarked),8.732,2.445,-3.136,2.062,15.48
CCN(Cc1ccoc1)Cc1nc(COC)no1,-11.18,-0.7673,3.249,7.071,-3.522
Cn1ncc2c1NC(=O)CC2c1ccccc1Br (centres unmarked),-14.28,3.671,1.204,3.727,-12.74
Cc1c(S(=O)(=O)N2CCCC2c2nnc(-c3ccsc3)o2)cnn1C (centres unmarked),-26.51,-9.091,1.025,4.981,0.8842
Cc1ccoc1C(=O)N1CCO[C@H]2[C@H](OCCN(C)C)CC[C@@H]21,-3.513,2.919,6.099,-2.703,-8.767
CC(=O)N(C)CC(=O)Nc1cnc(-n2ccnc2)nc1,-12.44,2.384,6.544,-0.4878,-17.55
CN(Cc1n[nH]c2c1CCC2)C(=O)c1cc(-c2cccn2C)n[nH]1,8.1,4.391,-0.4327,16.42,-7.661
O=C(c1c[nH]nn1)N1CCN(C(c2ccccc2)C(F)(F)F)CC1 (centres unmarked),11.03,7.937,5.388,5.172,-90.61
Cc1nc(CN(C)C2CCN(CCCOc3ccc(F)cc3)C2)no1 (centres unmarked),3.803,-7.775,-1.326,6.553,-31.18
Cc1cccc(C(C(=O)N(C)Cc2cc(C)no2)N(C)C)c1 (centres unmarked),2.501,2.314,0.4226,3.352,-17.74
O=C1CCNc2cc3c(cc2CN1CC1CC1)OCO3,10.14,0.6135,1.051,4.624,5.351
O=C(c1cnccn1)N1CCCC(C2=Nc3ccccc3S(=O)(=O)N2)C1 (centres unmarked),-14.57,-4.358,1.627,3.955,3.842
CC(=O)N1Cc2nccn2CC(CNC(=O)c2cccnc2)C1 (centres unmarked),7.666,-,5.154,0,23.51
CCc1nc(CC(=O)N2CCCCC2Cn2cccn2)cs1 (centres unmarked),-23.04,2.35,-1.013,2.26,-15.4
COc1ccc(S(=O)(=O)NCCC(O)c2ccoc2)c(C)c1 (centres unmarked),0.0371,-0.2114,2.682,2.062,-33.3
CCCNC(=O)CNC(=O)c1scnc1C,5.805,-2.336,6.73,-0.4425,-18.76
CC(C)n1[nH]c(=O)c2c1NC(=O)CC2c1ccc(C#N)cc1 (centres unmarked),-1.182,0,-0.5682,0,-31.73
Cc1ccc(CN(C)C(=O)NCC(C)(C)CCS(C)(=O)=O)s1,-4.83,6.695,3.341,1.02,-34.73
Cc1nc(Nc2nnc(C)s2)cc(C2CCCN2C(C)C)n1 (centres unmarked),6.026,3.594,-2.107,1.498,-7.016
O=C([C@@H]1COC[C@H]2CN(C3CCOCC3)C[C@H]21)N1CCCCO1,15.59,2.157,-3.749,1.622,3.42
CN(CCCc1ccccc1)C(=O)c1cn2c(n1)CNCC2,5.44,2.233,3.791,19.08,-19.69
COCCNc1nc2c(c(NCc3ccncc3)n1)CCNCC2,-13.84,-6.183,4.325,10.83,-8.09
COc1cccc(OC)c1OCCn1c(C)c(C)oc1=O,-2.965,14.65,1.142,7.2,-24.68

6 of the entries, repeated:

structure	ClpP1P2	CoaBC	PfKRS1	TcHisRS	Pks13 thioesterase
CCC[C@@H]1CN(Cc2ccccc2OC(F)(F)F)C[C@H]1NC(C)=O	-13.57	3.435	2.233	3.365	-5.671
COc1ccc(S(=O)(=O)NCCC(O)c2ccoc2)c(C)c1 (centres unmarked)	0.0371	-0.2114	2.682	2.062	-33.3
COc1cccc(OC)c1OCCn1c(C)c(C)oc1=O	-2.965	14.65	1.142	7.2	-24.68
CCCC(=O)N1CCC2(CC1)CN(Cc1cccc(C)n1)C(=O)CO2	-9.36	-0.9877	1.366	4.673	-10.62
CCc1nc(CC(=O)N2CCCCC2Cn2cccn2)cs1 (centres unmarked)	-23.04	2.35	-1.013	2.26	-15.4
Cc1csc2c(C3CCCN(C(=O)CCCn4cncn4)C3)nc(C)n12 (centres unmarked)	-29.93	2.67	0.3154	4.215	6.689

From ChEMBL document CHEMBL3988442, “University of Dundee, Small-Polar-MMV Screening Library” (2021).